# According to the supplement of paper PMC9135407:
# Where “and” joins values, the source holds several entries; their conditions need not be identical. Equal entries are not always repeated. Structures can show the parent of a compound that is named as a salt. ± gives the standard deviation of the averaged measurements. Some of the results follow. Baselines shift from plate to plate; read single values as rough.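 Primary human stellate myofibroblasts activated in culture; inactivation shown by regained lipid droplets. Readout: fraction of Hoechst-counted cells exceeding a per-plate Bodipy threshold, duplicate wells, each plate with DMSO negative and nortriptyline positive controls. Hits: control-normalized score beyond the plate's top-tenth-percentile nortriptyline wells, or among its three best wells. Final well concentrations unstated.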
# Test system: primary human hepatic stellate cells (donor 1)
# Assay: percent Bodipy-positive cells; higher = more lipid droplet accumulation
# Settings: 48 h
# Protocol: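 Primary lipid accumulation screen in primary human hepatic stellate cell myofibroblasts (donor 1, passage 8) in 384-well plates. 100 nL of library compound was pin-transferred into 30 µL medium in duplicate, and cells were treated for 48 h. The 'Scaled' score combines distance from plate baseline, toxicity and reproducibility penalties, and is normalised to nortriptyline (positive) and DMSO (negative) controls on each plate. A hit is defined as scaled >0.85 or among the top 3 wells per plate.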
# [1] = library stock concentration: 10 mM
# [2] = library stock concentration: 3.33 mM
# [3] = library stock concentration: 1 mM
smiles,measurement,setting,value
Cl.O=C([O-])c1ccc(-c2c3nc(c(-c4ccc(C(=O)O)cc4)c4nc(c(-c5ccc(C(=O)O)cc5)c5ccc([nH]5)c(-c5ccc(C(=O)[O-])cc5)c5ccc2[n-]5)C=C4)C=C3)cc1.[Mn+3] [MnTBAP chloride],percent Bodipy-positive cells,library stock concentration: 5.7 mM,14.7 ± 4.3%
Cl.N/C(=N\C(=O)c1nc(Cl)c(N)nc1N)NCc1ccccc1 [Benzamil hydrochloride],percent Bodipy-positive cells,[1],98.73 ± 0.98%
CCN(C(=O)c1c(O)c2c(Cl)cccc2n(C)c1=O)c1ccccc1 [Laquinimod],percent Bodipy-positive cells,[2],9.73 ± 1.5%
same,percent Bodipy-positive cells,[1],9.67 ± 5.2%
COc1cccc(CCc2ccccc2OCC[C@@H]2C[C@@H](O)CN2C)c1.Cl,percent Bodipy-positive cells,[1],94.6 ± 2.4%
C1CCC(C(CC2CCCCN2)C2CCCCC2)CC1 (stereo not drawn) [Perhexiline maleate],percent Bodipy-positive cells,,95.8 ± 4.4%
same,percent Bodipy-positive cells,library stock concentration: 5.1 mM,68.6 ± 3.4%
same,percent Bodipy-positive cells,[1],70.87 ± 0.2%
COc1ccccc1N1CCN(CCCCNC(=O)c2ccc(-c3ccc(C(C)=O)cc3)cc2)CC1,percent Bodipy-positive cells,[1],78.5 ± 5.7%
CN1CC(=O)N2[C@H](c3ccc4c(c3)OCO4)c3[nH]c4ccccc4c3C[C@@H]2C1=O,percent Bodipy-positive cells,[1],9.81 ± 0.77%
CN1CC(=O)N2[C@H](c3ccc4c(c3)OCO4)c3[nH]c4ccccc4c3C[C@@H]2C1=O [Tadalafil],percent Bodipy-positive cells,[2],7.16 ± 4.7%
same,percent Bodipy-positive cells,[1],16.7 ± 0.29%
CCCCCC(O)C=CC1C(O)CC(O)C1CC=CCCCCOC (stereo not drawn) [Prostaglandin F2.alpha. Alcohol methyl ether],percent Bodipy-positive cells,[3],13 ± 3.1%
NC1CCN(c2cccc(Cl)n2)CC1,percent Bodipy-positive cells,[1],58.3% and 41.3%
Cc1cccc(-c2[nH]c(C(C)(C)C)nc2-c2ccc3c(c2)OCO3)n1,percent Bodipy-positive cells,[2],48.2 ± 4.1%
same,percent Bodipy-positive cells,[1],28.5 ± 3.4%
C[C@@H](N)c1ccc(C(=O)Nc2ccnc3[nH]ccc23)cc1.Cl.Cl,percent Bodipy-positive cells,[1],100%
CCCCCCCCCCCCC/C=C/[C@@H](O)[C@H](CO)NCCCCCCCC [C8 Ceramine],percent Bodipy-positive cells,[3],22.9 ± 6.3%
CCCCCCCCCCCCC/C=C/[C@@H](O)[C@H](CO)NCCCCCCCC [C-8 Ceramine],percent Bodipy-positive cells,[3],18.6 ± 6.2%
CC(NC(=O)c1ccccc1/N=C/c1c(O)ccc2ccccc12)c1ccccc1 (stereo not drawn) [Sirtinol],percent Bodipy-positive cells,[2],6.88 ± 1.1%
same,percent Bodipy-positive cells,[1],14.4% and 7.75%
COc1cc(C(=O)NCc2ccc(OCCN(C)C)cc2)cc(OC)c1OC [Trimethobenzamide hydrochloride],percent Bodipy-positive cells,,32.8 ± 12%
same,percent Bodipy-positive cells,library stock concentration: 4.7 mM,25.7 ± 6.4%
same,percent Bodipy-positive cells,[1],31.2 ± 12%
CCCN1CCCC[C@H]1C(=O)Nc1c(C)cccc1C,percent Bodipy-positive cells,library stock concentration: 9.9 mM,8.37 ± 0.85%
CCCN1CCCC[C@H]1C(=O)Nc1c(C)cccc1C [Ropivacaine HCl],percent Bodipy-positive cells,[2],26.8 ± 7%
same,percent Bodipy-positive cells,[1],23 ± 3.1%
Cc1ccc(S(=O)(=O)N[C@@H](Cc2ccccc2)C(=O)CCl)cc1 [Tosyl-Phe-CMK (TPCK)],percent Bodipy-positive cells,library stock concentration: 14.2 mM,100%
Cc1ccc(S(=O)(=O)N[C@@H](Cc2ccccc2)C(=O)CCl)cc1 [N-p-Tosyl-L-phenylalanine chloromethyl ketone],percent Bodipy-positive cells,[1],98.8 ± 1.1%
CC(C)(OCc1nn(Cc2ccccc2)c2ccccc12)C(=O)O [Bindarit],percent Bodipy-positive cells,[2],10.1 ± 2.3%
same,percent Bodipy-positive cells,[1],7.78 ± 1.1%
c1cnc(N2CCN(Cc3ccc4c(c3)OCO4)CC2)nc1 [Piribedil maleate],percent Bodipy-positive cells,[1],20.6 ± 12%
c1cnc(N2CCN(Cc3ccc4c(c3)OCO4)CC2)nc1 [Piribedil hydrochloride],percent Bodipy-positive cells,,6.5 ± 1.4%
c1cnc(N2CCN(Cc3ccc4c(c3)OCO4)CC2)nc1 [Piribedil],percent Bodipy-positive cells,library stock concentration: 9.7 mM,13.3 ± 3.8%
same,percent Bodipy-positive cells,[1],6.91 ± 0.94%
c1cnc(N2CCN(Cc3ccc4c(c3)OCO4)CC2)nc1 [Piribedil HCl],percent Bodipy-positive cells,library stock concentration: 6.7 mM,12.5 ± 0.62%
COC(=O)/C=C/c1cccc(N(Cc2ccc(-c3ccc(N(C)C)cc3)cc2)C(=O)C2CCCCC2)c1 [Fexaramine],percent Bodipy-positive cells,[1],8.33 ± 0.36%
C[C@](N)(Cc1ccc(O)c(O)c1)C(=O)O [Methyldopa],percent Bodipy-positive cells,library stock concentration: 9.5 mM,9% and 5.03%
C[C@](N)(Cc1ccc(O)c(O)c1)C(=O)O [L-alpha-Methyl DOPA],percent Bodipy-positive cells,[1],51.3 ± 20%
"C[C@](N)(Cc1ccc(O)c(O)c1)C(=O)O [Methyldopa (L,-)]",percent Bodipy-positive cells,,27 ± 13%
Cc1ccc(NC(=O)c2ccc(CN3CCN(C)CC3)cc2)cc1Nc1nccc(-c2cccnc2)n1 [Imatinib (STI571)],percent Bodipy-positive cells,[1],86.2 ± 6.2%
Cl.Fc1ccc([C@@H]2CCNC[C@H]2COc2ccc3c(c2)OCO3)cc1 [Paroxetine HCl],percent Bodipy-positive cells,[2],68.2 ± 9.7%
CCOC(=O)c1cnc2ccc(-c3cncc(NS(=O)(=O)c4ccccc4)c3)cn12,percent Bodipy-positive cells,[2],80.2 ± 7.7%
COc1cc2c(c(OC)c1OC)-c1c(cc3c(c1OC)OCO3)CC(C)C(C)C2 (stereo not drawn) [Schisandrin B (Sch B)],percent Bodipy-positive cells,[2],5.9 ± 0.34%
same,percent Bodipy-positive cells,[1],36.6 ± 14%
O=c1[nH]nc(Sc2ncc([N+](=O)[O-])s2)n1-c1ccc2c(c1)OCCO2,percent Bodipy-positive cells,[1],89.1 ± 1.6%
Clc1ccc(C(Cn2ccnc2)OCc2ccsc2Cl)c(Cl)c1 (stereo not drawn) [Tioconazole],percent Bodipy-positive cells,[2],7.1 ± 2.5%
same,percent Bodipy-positive cells,library stock concentration: 5.2 mM,6.15% and 12.5%
same,percent Bodipy-positive cells,[1],18.8 ± 0.75%
COc1cc(C(=O)N2CCC(N3CCN(C)CC3)CC2)ccc1Nc1ncc2c(n1)N(C)c1ccccc1C(=O)N2C [listing 1 of 2 here],percent Bodipy-positive cells,library stock concentration: 80 uM,11.1 ± 2.5%
same,percent Bodipy-positive cells,library stock concentration: 400 uM,15 ± 0.77%
same,percent Bodipy-positive cells,library stock concentration: 2 mM,44.7 ± 4.3%
O=C(O)CNC(=O)C(CS)Cc1ccccc1 (racemic) [DL-Thiorphan],percent Bodipy-positive cells,[1],15.2 ± 5.1%
CCCC1C(=O)N2C(N(C)C)=Nc3ccc(C)cc3N2C1=O (stereo not drawn) [Azapropazone],percent Bodipy-positive cells,,9.2 ± 1.1%
COc1cc2c(cc1OC)CC(=O)N(CCCN(C)C[C@H]1Cc3cc(OC)c(OC)cc31)CC2 [Ivabradine HCl],percent Bodipy-positive cells,[2],13.1 ± 8.3%
same,percent Bodipy-positive cells,[1],18.8 ± 1.1%
CCCCCCCCCC(=O)NC(CN1CCOCC1)C(O)c1ccccc1 (stereo not drawn) [PDMP (hydrochloride)],percent Bodipy-positive cells,[3],9.94 ± 4.1%
COc1cc(C(=O)N2CCC(N3CCN(C)CC3)CC2)ccc1Nc1ncc2c(n1)N(C)c1ccccc1C(=O)N2C [listing 2 of 2 here],percent Bodipy-positive cells,[1],91.56 ± 0.34%

# Two entries drawn at random from those above:
smiles,measurement,setting,value
CC(C)(OCc1nn(Cc2ccccc2)c2ccccc12)C(=O)O [Bindarit],percent Bodipy-positive cells,[2],10.1 ± 2.3%
COc1cc(C(=O)NCc2ccc(OCCN(C)C)cc2)cc(OC)c1OC [Trimethobenzamide hydrochloride],percent Bodipy-positive cells,,32.8 ± 12%
